These are yes or no findings as the source states them, for the method shown. In cells and extracts the contact can be indirect. Binding can be weak; no strength is given.

Results on one substance are retold here after article doi:10.1101/2022.08.14.503837.

The target of this assay is Nucleoporin 98A (Glycine max (endogenous in etiolated hypocotyl nuclei)) (UniProt I1LVB2). The assay can be described thus: cross-linking.

Turning to “Ribonucleic Acid Export 1 (from UniProt I1JEL5)”, the binding result is “binds”.
